# Test results: the supplement of paper PMC8728848
# This is one part of the list.
# B1: SLLPI (Mus musculus), Q9D9X8 (protein)
# chain: MGICMSMYTQVLVPVDADGDHHILWSRFYERWGSCFNPCAGLVNCLPPHSSALYLCHRMEARSRAPRRQLCPPGITWLALAYLLSCLLASSKAKVFSRCELAKEMHDFGLDGYRGYNLADWVCLAYYTSGFNTNAVDHEADGSTNNGIFQISSRRWCRTLASNGPNLCRIYCTDLLNNDLKDSIVCAMKIVQEPLGLGYWEAWRHHCQGRDLSDWVDGCDF
# Key:
# Experiment in all cases: glycan array binding signal (z-score within array); higher = stronger binding
# Conditions in all cases: glycan notation: IUPAC condensed, linker removed
# GalNAc(b1-3)GalNAc = biological target: GalNAc(b1-3)GalNAc
# Procedure, shortened: (§1)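 The Consortium for Functional Glycomics database supplied 3228 glycan arrays, of which those lacking an available protein sequence were dropped. The binding signal, a within-array Z-score, was averaged across arrays of the same protein sequence and across linkers. Negative scores can be read as non-binding.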
# GalNAc(b1-4)GlcNAc = biological target: GalNAc(b1-4)GlcNAc
# Procedure, shortened: as §1
# Glc(a1-4)Glc = biological target: Glc(a1-4)Glc
# Procedure, shortened: as §1
# Glc(a1-6)Glc(a1-6)Glc = biological target: Glc(a1-6)Glc(a1-6)Glc
# Procedure, shortened: as §1
# Glc(b1-4)Glc = biological target: Glc(b1-4)Glc
# Procedure, shortened: as §1
# Glc(b1-6)Glc = biological target: Glc(b1-6)Glc
# Procedure, shortened: as §1
# GlcA(b1-3)Gal = biological target: GlcA(b1-3)Gal
# Procedure, shortened: as §1
# GlcA(b1-3)GlcNAc = biological target: GlcA(b1-3)GlcNAc
# Procedure, shortened: as §1
# GlcA(b1-6)Gal = biological target: GlcA(b1-6)Gal
# Procedure, shortened: as §1
# [1] = biological target: GlcNAc(a1-3)Gal(b1-4)GlcNAc
# Procedure, shortened: as §1
# [2] = biological target: GlcNAc(a1-6)Gal(b1-4)GlcNAc
# Procedure, shortened: as §1
# [3] = biological target: GlcNAc(b1-2)Gal(b1-3)GalNAc
# Procedure, shortened: as §1
# [4] = biological target: GlcNAc(b1-2)Man(a1-3)[GlcNAc(b1-2)Man(a1-6)]Man(b1-4)GlcNAc(b1-4)GlcNAc
# Procedure, shortened: as §1
# GlcNAc(b1-3)Gal = biological target: GlcNAc(b1-3)Gal
# Procedure, shortened: as §1
# [5] = biological target: GlcNAc(b1-3)Gal(b1-3)GalNAc
# Procedure, shortened: as §1
# GlcNAc(b1-3)Gal(b1-4)Glc = biological target: GlcNAc(b1-3)Gal(b1-4)Glc
# Procedure, shortened: as §1
# [6] = biological target: GlcNAc(b1-3)Gal(b1-4)GlcNAc
# Procedure, shortened: as §1
# [7] = biological target: GlcNAc(b1-3)Gal(b1-4)GlcNAc(b1-3)Gal(b1-4)GlcNAc
# Procedure, shortened: as §1
# GlcNAc(b1-3)GalNAc = biological target: GlcNAc(b1-3)GalNAc
# Procedure, shortened: as §1
# GlcNAc(b1-3)Man = biological target: GlcNAc(b1-3)Man
# Procedure, shortened: as §1
# [8] = biological target: GlcNAc(b1-3)[GlcNAc(b1-4)][GlcNAc(b1-6)]GlcNAc
# Procedure, shortened: as §1
# [9] = biological target: GlcNAc(b1-3)[GlcNAc(b1-6)]Gal(b1-4)GlcNAc
# Procedure, shortened: as §1
# [10] = biological target: GlcNAc(b1-3)[GlcNAc(b1-6)]GalNAc
# Procedure, shortened: as §1
# [11] = biological target: GlcNAc(b1-4)Gal(b1-4)GlcNAc
# Procedure, shortened: as §1
# GlcNAc(b1-4)GlcNAc = biological target: GlcNAc(b1-4)GlcNAc
# Procedure, shortened: as §1
# [12] = biological target: GlcNAc(b1-4)GlcNAc(b1-4)GlcNAc
# Procedure, shortened: as §1
# [13] = biological target: GlcNAc(b1-4)GlcNAc(b1-4)GlcNAc(b1-4)GlcNAc(b1-4)GlcNAc
# Procedure, shortened: as §1
# [14] = biological target: GlcNAc(b1-4)GlcNAc(b1-4)GlcNAc(b1-4)GlcNAc(b1-4)GlcNAc(b1-4)GlcNAc
# Procedure, shortened: as §1
# [15] = biological target: GlcNAc(b1-4)[GlcNAc(b1-6)]GalNAc
# Procedure, shortened: as §1
# [16] = biological target: GlcNAc(b1-6)Gal(b1-4)GlcNAc
# Procedure, shortened: as §1
# GlcNAc(b1-6)GalNAc = biological target: GlcNAc(b1-6)GalNAc
# Procedure, shortened: as §1
# GlcNAc3Prop(b1-4)GlcNAc = biological target: GlcNAc3Prop(b1-4)GlcNAc
# Procedure, shortened: as §1
# Kdn(a2-3)Gal(b1-3)GlcNAc = biological target: Kdn(a2-3)Gal(b1-3)GlcNAc
# Procedure, shortened: as §1
# Kdn(a2-3)Gal(b1-4)GlcNAc = biological target: Kdn(a2-3)Gal(b1-4)GlcNAc
# Procedure, shortened: as §1
# [17] = biological target: Man(a1-2)Man(a1-2)Man(a1-3)Man
# Procedure, shortened: as §1
# [18] = biological target: Man(a1-2)Man(a1-2)Man(a1-6)[Man(a1-3)]Man
# Procedure, shortened: as §1
# Man(a1-2)Man(a1-3)Man = biological target: Man(a1-2)Man(a1-3)Man
# Procedure, shortened: as §1
# [19] = biological target: Man(a1-2)Man(a1-3)[Man(a1-2)Man(a1-6)]Man
# Procedure, shortened: as §1
# [20] = biological target: Man(a1-2)Man(a1-3)[Man(a1-2)Man(a1-6)]Man(a1-6)[Man(a1-2)Man(a1-2)Man(a1-3)]Man
# Procedure, shortened: as §1
# [21] = biological target: Man(a1-2)Man(a1-3)[Man(a1-2)Man(a1-6)]Man(a1-6)[Man(a1-2)Man(a1-2)Man(a1-3)]Man(b1-4)GlcNAc(b1-4)GlcNAc
# Procedure, shortened: as §1
# [22] = biological target: Man(a1-2)Man(a1-3)[Man(a1-6)]Man(a1-6)[Man(a1-2)Man(a1-3)]Man(b1-4)GlcNAc(b1-4)GlcNAc
# Procedure, shortened: as §1
# [23] = biological target: Man(a1-2)Man(a1-6)[Man(a1-3)]Man(a1-6)[Man(a1-2)Man(a1-2)Man(a1-3)]Man
# Procedure, shortened: as §1
# [24] = biological target: Man(a1-2)Man(a1-6)[Man(a1-3)]Man(a1-6)[Man(a1-2)Man(a1-2)Man(a1-3)]Man(b1-4)GlcNAc(b1-4)GlcNAc
# Procedure, shortened: as §1
# Man(a1-3)[Man(a1-6)]Man = biological target: Man(a1-3)[Man(a1-6)]Man
# Procedure, shortened: as §1
# [25] = biological target: Man(a1-3)[Man(a1-6)]Man(a1-6)[Man(a1-2)Man(a1-3)]Man(b1-4)GlcNAc(b1-4)GlcNAc
# Procedure, shortened: as §1
binder,measurement,setting,value
B1,glycan array binding signal (z-score),GalNAc(b1-3)GalNAc,1.03
same,glycan array binding signal (z-score),GalNAc(b1-4)GlcNAc,-0.301
same,glycan array binding signal (z-score),Glc(a1-4)Glc,-0.387
same,glycan array binding signal (z-score),Glc(a1-6)Glc(a1-6)Glc,-0.821
same,glycan array binding signal (z-score),Glc(b1-4)Glc,-0.912
same,glycan array binding signal (z-score),Glc(b1-6)Glc,-0.283
same,glycan array binding signal (z-score),GlcA(b1-3)Gal,0.451
same,glycan array binding signal (z-score),GlcA(b1-3)GlcNAc,-0.219
same,glycan array binding signal (z-score),GlcA(b1-6)Gal,-1.06
same,glycan array binding signal (z-score),[1],0.414
same,glycan array binding signal (z-score),[2],0.171
same,glycan array binding signal (z-score),[3],-1.26
same,glycan array binding signal (z-score),[4],-0.631
same,glycan array binding signal (z-score),GlcNAc(b1-3)Gal,-0.47
same,glycan array binding signal (z-score),[5],3.21
same,glycan array binding signal (z-score),GlcNAc(b1-3)Gal(b1-4)Glc,-0.699
same,glycan array binding signal (z-score),[6],-0.961
same,glycan array binding signal (z-score),[7],-0.843
same,glycan array binding signal (z-score),GlcNAc(b1-3)GalNAc,-0.086
same,glycan array binding signal (z-score),GlcNAc(b1-3)Man,-0.446
same,glycan array binding signal (z-score),[8],-0.344
same,glycan array binding signal (z-score),[9],-0.606
same,glycan array binding signal (z-score),[10],0.017
same,glycan array binding signal (z-score),[11],-0.584
same,glycan array binding signal (z-score),GlcNAc(b1-4)GlcNAc,-1.01
same,glycan array binding signal (z-score),[12],1.92
same,glycan array binding signal (z-score),[13],-0.401
same,glycan array binding signal (z-score),[14],-0.311
same,glycan array binding signal (z-score),[15],-0.02
same,glycan array binding signal (z-score),[16],0.332
same,glycan array binding signal (z-score),GlcNAc(b1-6)GalNAc,0.716
same,glycan array binding signal (z-score),GlcNAc3Prop(b1-4)GlcNAc,-0.647
same,glycan array binding signal (z-score),Kdn(a2-3)Gal(b1-3)GlcNAc,-0.827
same,glycan array binding signal (z-score),Kdn(a2-3)Gal(b1-4)GlcNAc,-0.806
same,glycan array binding signal (z-score),[17],-0.502
same,glycan array binding signal (z-score),[18],-0.717
same,glycan array binding signal (z-score),Man(a1-2)Man(a1-3)Man,0.391
same,glycan array binding signal (z-score),[19],-1.08
same,glycan array binding signal (z-score),[20],-0.761
same,glycan array binding signal (z-score),[21],-0.652
same,glycan array binding signal (z-score),[22],0.317
same,glycan array binding signal (z-score),[23],0.216
same,glycan array binding signal (z-score),[24],-0.136
same,glycan array binding signal (z-score),Man(a1-3)[Man(a1-6)]Man,0.386
same,glycan array binding signal (z-score),[25],-1.09

# Random excerpt: 4 records from the list, in no set order.
binder,measurement,setting,value
B1,glycan array binding signal (z-score),[21],-0.652
same,glycan array binding signal (z-score),[5],3.21
same,glycan array binding signal (z-score),[19],-1.08
same,glycan array binding signal (z-score),[1],0.414
